Record: PubChem BioAssay AID652259 (Drosophila RNAi Screening Center, 2013)
Assay: 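Genome-wide hunt for genes that control Wingless pathway activity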 (primary screen). System: Drosophila clone 8 imaginal disc epithelial cells. Knock-down reagent: long dsRNA against Drosophila genes. Challenge: pathway stimulated by co-transfected Wingless expression plasmid. Measured: 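Dual luciferase reads per well after Wingless plasmid stimulation: reporter firefly light and Renilla control light; activity is firefly divided by Renilla, a ratio not deposited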. Scale: firefly reporter light: higher = more Wg reporter light, before normalisation; Renilla control light: higher = more transfected or surviving cells. Call rule: 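Strong candidates differ from their plate mean by at least two out of four per-plate statistical tests; weak candidates meet just one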. Meaning of the calls: active = candidate regulator (raises or lowers reporter); inactive = not a candidate.
The deposit covers about 22,000 reagents; this is an unselected part of those with a known target gene and a result. In the full data, 233 (1.1%) are marked active. 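Light values are raw, unnormalised plate reads; the ratio scores behind the reporter calls were not deposited.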 A plus sign joins genes that one reagent is predicted to hit. Reagent sequences are not shown. Not stated in the record: the amount of reagent, the time to read-out, the dose of the treatment.

no.	gene knocked down	amplicon	reporter change call, replicate 1	firefly reporter light, replicate 1	firefly reporter light, replicate 2	Renilla control light, replicate 1	Renilla control light, replicate 2	activity call
1	insv	DRSC00579		2352	4647	1170	2977	inactive
2	mld	DRSC13681		2656		1059		inactive
3	mld	DRSC14622		2515	6304	1337	1776	inactive
4	tws	DRSC12767		3309		1722		inactive
5	tws	DRSC17092		8321		2183		inactive
6	CG43163	DRSC10748		1622	10067	944	3426	inactive
7	vis + achi	DRSC07277		6489		1901		inactive
8	Sox21a	DRSC10819		6896		2710		inactive
9	Obp56d	DRSC06064		5936		2288		inactive
10	CG3961	DRSC10390		5736		2084		inactive
11	CG3961	DRSC10391		9708		3362		inactive
12	Obp56f	DRSC22270		2.98e5	3.93e5	1.17e5	1.41e5	inactive
13	MsrA	DRSC11159		8841		3553		inactive
14	Tob	DRSC20294		2070	5632	599	2019	inactive
15	ZnT41F	DRSC04850		11339		3808		inactive
16	CG3184	DRSC18289		2289	10556	688	2037	inactive
17	ND5 (retired record)	DRSC21281		19065		11217		inactive
18	CG4438	DRSC02746		2666	5063	898	2314	inactive
19	EMRE	DRSC06686	Wg reporter activity lowered	3570		3255		active
20	CR33319	DRSC01826		23964		13905		inactive
21	Shrm	DRSC06437		4883		873		inactive
22	Shrm	DRSC06438		6208		1302		inactive
23	Shrm	DRSC07221		12774		3095		inactive
24	Ag5r2	DRSC19328		18419		7931		inactive
25	Gp150	DRSC04618		3578	11593	931	5939	inactive
26	Ir7d	DRSC18010		28432		14148		inactive
27	Ire1	DRSC15606		11926		3267		inactive
28	TwdlP	DRSC14734		6012		3846		inactive
29	eEFSec	DRSC04571		1652	5185	601	1698	inactive
30	Pbp45	DRSC16509		23501		6688		inactive
31	CG33253	DRSC19547		32624		12950		inactive
32	CG33253	DRSC20053		27699	7.00e5	1257	3.11e5	inactive
33	rho-4	DRSC19761		4290	12932	1168	4054	inactive
34	rho-4	DRSC19762		20365		11234		inactive
35	tobi	DRSC14435		15984		14977		inactive
36	CG8833	DRSC11050		4385		1563		inactive
37	comr	DRSC04138		2264	7530	741	2807	inactive
38	chn	DRSC06086		14041		3190		inactive
39	dome	DRSC19583		1740	5956	784	1824	inactive
40	Hel25E	DRSC03342		3620		1350		inactive
41	CG3335	DRSC10358		6176		2763		inactive
42	AIF	DRSC00696		8877		2187		inactive
43	CG13039	DRSC09920		7490		3395		inactive
44	CG14015	DRSC02346		3035	2919	742	660	inactive
45	wnd	DRSC09626		4908		2480		inactive
46	wnd	DRSC11046		3321		1225		inactive
47	wnd	DRSC21373		3.23e5	4.20e5	1.74e5	1.99e5	inactive
48	CG10934	DRSC06017		16021		3333		inactive
49	CG8564	DRSC10997		4077		1720		inactive
50	CG30148	DRSC06391		4032		961		inactive
51	CG34012	DRSC09089		2660		2013		inactive
52	Apoltp	DRSC02508		6528		2105		inactive
53	CG7953	DRSC01902		9776		3169		inactive
54	CG18747	DRSC15384		15416		4416		inactive
55	CG31922	DRSC21703		8.67e5	8.36e5	4.74e5	3.81e5	inactive
56	hkb	DRSC12377		18012	7.45e5	5885	3.32e5	inactive
57	CG17147	DRSC10249		13584		2885		inactive
58	bcd	DRSC12624		7824		2828		inactive
59	ninaC	DRSC03579		7100		2988		inactive
60	Boh1	DRSC14487		3360	7488	1408	2757	inactive
61	Fs	DRSC06258		10138		2533		inactive
62	Fs	DRSC06259		5280		1688		inactive
63	Magi	DRSC04247		14421		3034		inactive
64	Magi	DRSC04451		2025	8160	524	3722	inactive
65	lic	DRSC20347		1698	7846	716	1927	inactive
66	capu	DRSC00208		18141		8178		inactive
67	capu	DRSC00209		23091		11236		inactive
68	capu	DRSC00434		2666	10000	962	3116	inactive
69	capu	DRSC00807		18657		5552		inactive
70	CG13810	DRSC08344		10262		4160		inactive
71	CG13810	DRSC22838		5.34e5	5.74e5	2.61e5	3.02e5	inactive
72	LManIII	DRSC03221		1323	3399	611	2176	inactive
73	Orc2	DRSC16776		6549		1974		inactive

4 entries from above, set out differently.
Ag5r2 [DRSC19328]
- firefly reporter light, replicate 1: 18419
- Renilla control light, replicate 1: 7931
- activity call: inactive

Gp150 [DRSC04618]
- firefly reporter light, replicate 1: 3578
- firefly reporter light, replicate 2: 11593
- Renilla control light, replicate 1: 931
- Renilla control light, replicate 2: 5939
- activity call: inactive

Ir7d [DRSC18010]
- firefly reporter light, replicate 1: 28432
- Renilla control light, replicate 1: 14148
- activity call: inactive

Ire1 [DRSC15606]
- firefly reporter light, replicate 1: 11926
- Renilla control light, replicate 1: 3267
- activity call: inactive
